# Experimental data taken from paper PMC10828378.
# Amino acid sequences for entries named in this document (tags omitted).
# UniProt Q96P20: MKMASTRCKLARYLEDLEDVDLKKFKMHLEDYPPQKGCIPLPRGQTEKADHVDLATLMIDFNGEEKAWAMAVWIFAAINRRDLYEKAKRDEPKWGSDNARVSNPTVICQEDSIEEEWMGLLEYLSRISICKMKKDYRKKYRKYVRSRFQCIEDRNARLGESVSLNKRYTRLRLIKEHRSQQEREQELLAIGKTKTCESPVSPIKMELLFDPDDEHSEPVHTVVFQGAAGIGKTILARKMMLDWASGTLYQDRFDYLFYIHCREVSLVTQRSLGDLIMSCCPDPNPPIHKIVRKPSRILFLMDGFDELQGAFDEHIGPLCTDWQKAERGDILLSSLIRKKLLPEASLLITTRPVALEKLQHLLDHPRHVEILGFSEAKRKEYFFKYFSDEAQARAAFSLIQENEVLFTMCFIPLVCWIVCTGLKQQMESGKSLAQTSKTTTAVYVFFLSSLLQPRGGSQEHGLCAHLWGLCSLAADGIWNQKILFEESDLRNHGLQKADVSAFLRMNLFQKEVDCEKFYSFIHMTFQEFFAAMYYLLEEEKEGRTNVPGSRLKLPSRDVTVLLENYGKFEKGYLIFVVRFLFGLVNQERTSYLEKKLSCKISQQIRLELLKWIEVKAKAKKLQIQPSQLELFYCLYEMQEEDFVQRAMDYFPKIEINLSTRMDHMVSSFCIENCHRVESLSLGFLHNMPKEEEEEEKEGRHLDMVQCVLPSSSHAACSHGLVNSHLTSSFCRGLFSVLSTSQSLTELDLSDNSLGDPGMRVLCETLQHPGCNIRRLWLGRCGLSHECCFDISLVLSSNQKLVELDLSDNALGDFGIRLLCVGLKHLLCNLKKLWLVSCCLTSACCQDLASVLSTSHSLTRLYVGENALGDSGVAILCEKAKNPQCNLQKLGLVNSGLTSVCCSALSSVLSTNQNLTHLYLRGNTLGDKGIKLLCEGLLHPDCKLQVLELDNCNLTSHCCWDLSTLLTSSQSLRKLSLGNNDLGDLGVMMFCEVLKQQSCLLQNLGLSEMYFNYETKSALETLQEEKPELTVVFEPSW
# No constants are given. Whether binding was seen depends on the method and setting. Binding seen in cells or lysates may run through a third protein. Some results given as binding are weak or reduced against the parent protein; the word gives no strength.
# B1: tripartite motif-containing protein 59 (TRIM59) (protein, UniProt Q8IWR1 1-403)
# chain: MHNFEEELTCPICYSIFEDPRVLPCSHTFCRNCLENILQASGNFYIWRPLRIPLKCPNCRSITEIAPTGIESLPVNFALRAIIEKYQQEDHPDIVTCPEHYRQPLNVYCLLDKKLVCGHCLTIGQHHGHPIDDLQSAYLKEKDTPQKLLEQLTDTHWTDLTHLIEKLKEQKSHSEKMIQGDKEAVLQYFKELNDTLEQKKKSFLTALCDVGNLINQEYTPQIERMKEIREQQLELMALTISLQEESPLKFLEKVDDVRQHVQILKQRPLPEVQPVEIYPRVSKILKEEWSRTEIGQIKNVLIPKMKISPKRMSCSWPGKDEKEVEFLKILNIVVVTLISVILMSILFFNQHIITFLSEITLIWFSEASLSVYQSLSNSLHKVKNILCHIFYLLKEFVWKIVSH
# Molecular target: NOD-like receptor family pyrin domain containing 3 (NLRP3) (human (endogenous in HMC3)) (UniProt Q96P20)
# Test: co-IP; HMC3 cells lysed in RIPA buffer, precleared with protein A/G Sepharose beads; lysate incubated with anti-NLRP3 or anti-TRIM59 antibodies or control IgG at 4 °C overnight, then protein A/G Sepharose beads 4 h; bound proteins analysed by western blotting
binder,measurement,value
B1,binding,binds
